Test [1] addresses Helicobacter pylori FabX (H. pylori). As to the kind of experiment: ITC; FabX or FabX R164A in the cell, holo-ACP in the syringe (1:10); 10 °C; 20 mM HEPES pH 8.0, 150 mM NaCl, 1 mM TCEP; both purified. Background: Isothermal titration calorimetry measures the heat released or taken up as one component is titrated into another.
The target of test [2] is Helicobacter pylori FabX R164A (H. pylori). The test is described as above.
The target in test [3] is Helicobacter pylori FabX (H. pylori). As to the kind of experiment: crystal structure; FabX-holo-ACP complex (mixed 1:1.2, purified on Superdex75), crystallised at 292 K in 0.1 M HEPES pH 7.0, 20% PEG 8000; space group P2(1), 2.8 Å; both purified.

No constants are given. Whether binding was seen depends on the method and setting. For part of these data: Binding calls can cover weak binding; strength is not graded here.

B1: Helicobacter pylori holo-acyl carrier protein (protein, UniProt P56464 1-78)
chain: MALFEDIQAVIAEQLNVDAVQVTPEAEFVKDLGADSLDVVELIMALEEKFGVEIPDEQAEKIINVGDVVKYIEDNKLA
modifications: phosphopantetheine group (PPant) on Ser36
Take B1: the binding result is recorded as “binds” in test [1], “no binding” in test [2] and “binds” in test [3].

Values taken from publication PMC8626469, “Helicobacter pylori FabX contains a [4Fe-4S] cluster essential for unsaturated fatty acid synthesis” (Nature Communications, 2021).
